In article PMC8184754:
No constants are given. Whether binding was seen depends on the method and setting. Binding seen in cells or lysates may run through a third protein. Some entries that bind do so weakly or less than the wild type.

Protein sequences, listed by entry. Tags and fused reporters are not part of them.
UniProt Q8BWG8: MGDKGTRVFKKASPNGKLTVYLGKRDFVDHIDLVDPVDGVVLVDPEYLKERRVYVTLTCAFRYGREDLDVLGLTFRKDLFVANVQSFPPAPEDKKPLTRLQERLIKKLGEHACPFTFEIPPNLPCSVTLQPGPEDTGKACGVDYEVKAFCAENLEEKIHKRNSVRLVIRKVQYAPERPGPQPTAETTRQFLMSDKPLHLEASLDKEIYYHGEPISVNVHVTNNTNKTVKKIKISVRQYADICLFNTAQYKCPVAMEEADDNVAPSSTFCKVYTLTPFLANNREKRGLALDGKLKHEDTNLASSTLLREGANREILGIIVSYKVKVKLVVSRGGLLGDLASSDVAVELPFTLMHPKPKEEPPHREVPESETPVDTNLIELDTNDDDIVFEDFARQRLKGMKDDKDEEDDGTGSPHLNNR
UniProt Q91YI4: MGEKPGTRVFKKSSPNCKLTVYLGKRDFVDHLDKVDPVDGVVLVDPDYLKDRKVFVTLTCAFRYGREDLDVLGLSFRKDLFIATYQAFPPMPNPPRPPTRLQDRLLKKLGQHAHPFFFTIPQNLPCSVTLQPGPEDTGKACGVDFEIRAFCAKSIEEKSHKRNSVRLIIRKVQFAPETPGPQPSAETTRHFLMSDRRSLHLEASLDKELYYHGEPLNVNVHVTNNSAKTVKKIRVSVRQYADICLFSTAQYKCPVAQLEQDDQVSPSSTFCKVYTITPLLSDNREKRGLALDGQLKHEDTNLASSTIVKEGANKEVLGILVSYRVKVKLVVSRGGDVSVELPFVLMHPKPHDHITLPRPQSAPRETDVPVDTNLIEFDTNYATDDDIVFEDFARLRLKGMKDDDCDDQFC
UniProt Q04207: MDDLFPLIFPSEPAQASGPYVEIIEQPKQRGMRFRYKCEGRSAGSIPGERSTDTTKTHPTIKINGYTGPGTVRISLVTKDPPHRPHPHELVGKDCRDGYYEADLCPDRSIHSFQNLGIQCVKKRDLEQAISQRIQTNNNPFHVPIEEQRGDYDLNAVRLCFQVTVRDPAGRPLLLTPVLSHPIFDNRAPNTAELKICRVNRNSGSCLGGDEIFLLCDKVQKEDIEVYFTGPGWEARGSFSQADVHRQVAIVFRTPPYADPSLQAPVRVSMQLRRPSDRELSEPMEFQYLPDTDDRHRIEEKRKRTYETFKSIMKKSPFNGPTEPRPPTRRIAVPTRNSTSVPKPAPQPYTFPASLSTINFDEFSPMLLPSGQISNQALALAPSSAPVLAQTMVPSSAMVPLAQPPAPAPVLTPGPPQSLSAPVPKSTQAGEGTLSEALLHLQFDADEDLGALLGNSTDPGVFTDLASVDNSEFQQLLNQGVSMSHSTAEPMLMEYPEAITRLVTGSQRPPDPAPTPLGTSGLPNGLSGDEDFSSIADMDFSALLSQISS

How the values were obtained:
[1] = target: β-arrestin 1 (mouse (endogenous in BMDMs)) (UniProt Q8BWG8); assay: condition: only BMDMs without LPS plus IFN-γ stimulation; co-IP; lysates (RIPA buffer) of mouse BMDMs without LPS plus IFN-γ stimulation; immunoprecipitated with antibodies against ARRB1 or ARRB2, protein A/G beads, immunoblotting
[2] = target: β-arrestin 2 (mouse (endogenous in BMDMs)) (UniProt Q91YI4); assay: as above
[3] = target: β-arrestin 1 (mouse (endogenous in BMDMs)) (UniProt Q8BWG8); assay: co-IP; lysates (RIPA buffer) of mouse BMDMs stimulated with LPS plus IFN-γ for 1 h; immunoprecipitated with 2 μg of antibodies against ARRB1 or ARRB2 at 4 °C overnight, protein A/G beads, immunoblotting; also BMDMs of ARRB1 or ARRB2 knockout mice
[4] = target: β-arrestin 2 (mouse (endogenous in BMDMs)) (UniProt Q91YI4); assay: as above

Question: Which results are given for p65 (from UniProt Q04207 1-549)?
Answer: binding [1]: no binding; binding [2]: no binding; binding [3]: binds; binding [4]: binds
